The record followed here is US20170072062A1 (published 2017).

By UniProt entry, the sequences of proteins in these tests, tags left out. Residues count along the entry.
UniProt P13686, residues 22-325: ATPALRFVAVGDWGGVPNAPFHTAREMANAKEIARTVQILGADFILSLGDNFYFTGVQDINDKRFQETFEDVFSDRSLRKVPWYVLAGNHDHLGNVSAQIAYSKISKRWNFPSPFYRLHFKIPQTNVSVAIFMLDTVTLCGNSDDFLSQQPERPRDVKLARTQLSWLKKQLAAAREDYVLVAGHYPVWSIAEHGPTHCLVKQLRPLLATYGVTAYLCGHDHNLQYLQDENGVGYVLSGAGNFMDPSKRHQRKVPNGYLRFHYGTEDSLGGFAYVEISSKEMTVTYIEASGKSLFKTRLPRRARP

Test [1] addresses TRAP deposited by previous osteoclast activity on human cortical bone wafers (human) (UniProt P13686). Kind of test: confocal imaging of fluorescent peptide on cortical bone wafers.
For test [2] the target is unchanged. Kind of test: confocal imaging of fluorescent peptide on human cortical bone wafers.

These are yes or no findings as the source states them, for the method shown. Some entries that bind do so weakly or less than the wild type.

In the case of TPLSYLKGLVTVG (fluorescent cadaverine coupled with NHS/DCC (site not stated)) [fluorescently labeled TRAP-binding peptide (TBP)], the binding entry in test [1] and in test [2] was “binds” each time.
